These results are taken from patent US11726079B2, “Lighting systems and methods of using lighting systems for in vitro potency assay for Photofrin” (Concordia Laboratories, Inc., priority 2012, dated 2023).

For this data set, the system named is A549 human lung carcinoma cells. Kind of data set: In vitro potency assay for Photofrin®: A549 cells, 4 h drug absorption, wash, 10 min irradiation at 400-650 nm, 24 h, XTT viability, 4PL EC50. Type of data set: cell-based. The protocol:
Cell passaging of A549 cells is performed using fixed seeding densities to reduce assay variation resulting from cell culture conditions. […] Working in very low light conditions, Photofrin® is reconstituted in normal saline to 2.5 mg/mL and diluted further in culture medium at twice the desired final assay concentration, typically 140 μg/mL. A series of two-fold dilutions were then prepared from the 140 μg/mL solution and the diluted drug was added to the cells at 1:1 (v/v) according to the diagram shown in FIG. 11.
[…] The plate is then removed from the incubator, the drug is aspirated, the wells are washed with Dulbecco's phosphate buffered saline (DPBS) and fresh, pre-warmed medium is added to the wells. […] […] The wells covered with foil strips are important controls for the activity of Photofrin® in the absence of irradiation and the effect of light on the cells in the absence of drug.
The optical absorbance of the wells in column 1 (high drug concentration, no cells) is evaluated for absorption at 450 nm to ensure that the drug is not interfering with the XTT assay. The percent viability of each of the wells in columns 2-9 and 11 is calculated relative to the mean value of column 10 (cell control, no drug, no light). For each dose response obtained, a four parameter logistic (4PL) nonlinear regression analysis is performed of the percent viability versus the log-Photofrin® concentration. The point of inflection of the regression curve (C value) is defined as the EC50 and used in the calculation of relative potency. Curve fitting and calculation of the EC50 is performed with Softmax v5.4.2 (Molecular Devices, Inc.) or Prism v.5.04 (GraphPad, Software Inc.) software. The mean percent viability of columns 9 and 11 is also calculated.
• 1. Materials and Reagents • 1.1. A549 Human Lung Carcinoma (ATCC—Cat. No.: CCL-185) • 1.2. 25 cm^2 Flasks (Corning—Cat. No.: 431463, or equivalent) • 1.3. 75 cm^2 Flasks (Corning—Cat. No.: 431464, or equivalent) • 1.4. 50 mL tubes (Fisher Scientific—Cat. No. 17-512F, or equivalent) • 1.5. Hemacytometer • 1.6. RPMI-1640 (+) phenol red (Lonza—Cat. No.: 12-167F, or equivalent) • 1.7. HI-FBS (Gibco—Life Technologies—Cat No.: 10082-147, or equivalent) • 1.8. 200 mM L-Glutamine (Lonza—Cat. No.: 17-605E, or equivalent) • 1.9. 0.25% Trypsin-EDTA (Gibco—Cat. No.: 25200-056, or equivalent) • 2. Instruments • 2.1. Forma Scientific centrifuge with swinging bucket rotor (Model 5682, or equivalent) • 2.2. Water bath set at 37° C. • 2.3. […] Prepared Reagents • 3.1. RPMI-1640 Complete Media • 3.1.1. 500 mL bottle of RPMI-1640 basal media containing phenol red • 3.1.2. Add 50 mL HI-FBS • 3.1.3. Add 5.5 mL of 200 mM L-Glutamine • 4. Procedure • 4.1. Remove one vial of A549 lung carcinoma cells from liquid nitrogen storage and after ensuring that the vial is tightly closed, rapidly thaw vial by holding all but the top of the vial submerged in a 37° C. water bath until the vial contents begins to thaw but while ice still remains. • 4.2. Liberally spray the vial with 70% ethanol, wipe with tissue, and place into a laminar flow hood. • 4.3. Transfer the contents of the vial to a 50 mL conical tube containing 9 mL RPMI-1640 complete medium containing phenol red (Step 3.1) (hereafter referred to as complete medium in this method). • 4.4. Centrifuge the tube in a swing bucket rotor set at 1200 RPM (220 RCF) for five minutes at room temperature. • 4.5. Discard supernatant and gently flick the tube to resuspend the cells in the residual volume left in the tube. • 4.6. Add 5 mL complete medium, transfer the cell solution to a 25 cm^2 flask, and then place the flask into a 37° C. incubator with 5% CO2. • 4.7. Monitor the flask daily and when the cells reach approximately 80% confluence, remove the media, and wash the cells by adding 2 mL DPBS to the flask. Ensure that all cells are rinsed and discard the DPBS. • 4.8. Add 1 mL 0.25% trypsin-EDTA to prewash the cells, tip flask to coat all cells, and discard the trypsin. • 4.9. […]
Background: Tetrazolium assays rely on reduction of a dye to a coloured formazan, in cell work by metabolically active cells.

Take porfimer sodium [Photofrin®]: the “difference between results obtained with XTT and MTT endpoints” value (Photofrin® dose response curve, EC50 with XTT versus MTT) is listed as “approximately 15%”. Further, the “increase in the EC50 with black plates relative to clear plates” value (black plates with black lids versus clear plates) turned out to be 4 fold. For the same substance, the “deviation of Test sample potency from the expected value of 0.5” value is listed as at most 15% (incubation with Photofrin® for 4.5 hours); at most 11% (irradiation times 8, 9, 10, 11 and 12 minutes, all conditions); at most 13% (operators AB and KP, all potency values). Also, the “deviation of Test sample potency from the expected value” (post-irradiation incubation times from 22-26 hours) was at most 15%.
